Results deposited as PubChem BioAssay AID504774 (Drosophila RNAi Screening Center, 2011).
Test: 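Genes required for cells to withstand methyl methanesulphonate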 (primary screen). Cells: Drosophila Kc167 cells. Knock-down reagent: long dsRNA against Drosophila genes, about 0.25 µg dsRNA per well. Duration: about 6 days: 3 days knock-down, then 3 days with or without MMS. Treatment: methyl methanesulphonate 0.004% (w/v) for 3 days after knock-down. Measurement: 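Viability in wells given MMS, read as ATP luminescence, normalised by quantiles plate by plate and averaged across replicates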. Scale: mean viability with MMS and viability with MMS: higher = more surviving cells after MMS.
The deposit covers about 23,000 reagents; below is a random part of those with a known target gene and a result. 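Values are quantile-normalised luminescence on an arbitrary scale; higher means more cells surviving MMS.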 The numbers tell different reagents against one gene apart.

target gene	dsRNA no.	mean viability with MMS	viability with MMS, replicate 1	viability with MMS, replicate 2
Lmx1a (GeneID 39406)	1	3.52e6	3.89e6	4.07e6
Lmx1a (GeneID 39406)	2	2.86e6	3.46e6	3.45e6
so (GeneID 35662)	1	3.04e6	2.10e6	3.59e6
so (GeneID 35662)	2	3.69e6	4.04e6	4.33e6
CG1648 (GeneID 36009)	1	3.67e6	4.24e6	4.09e6
CG10646 (GeneID 39426)	1	1.73e6	3.79e6	
CG7715 (GeneID 42251)	1	3.59e6	4.09e6	4.05e6
ema (GeneID 41992)	1	3.34e6	3.68e6	3.88e6
Ir75c (GeneID 39983)	1	3.54e6	3.95e6	4.09e6
CG8838 (GeneID 33551)	1	3.56e6	4.16e6	3.91e6
CG8860 (GeneID 36310)	1	3.57e6	3.96e6	4.28e6
nAChRalpha2 (GeneID 42919)	1	3.50e6	3.93e6	4.01e6
CG31781 (retired record) (GeneID 35023)	1	3.56e6	3.89e6	4.21e6
CG31781 (retired record) (GeneID 35023)	2	3.52e6	3.97e6	4.01e6
Ote (GeneID 37090)	1	3.61e6	4.10e6	4.11e6
Fum3 (GeneID 39281)	1	3.57e6	3.99e6	4.09e6
RecQ5 (GeneID 39594)	1	3.60e6	4.11e6	4.05e6
ninaB (GeneID 41678)	1	3.67e6	4.20e6	4.15e6
CG13423 (GeneID 37315)	1	3.36e6	3.75e6	3.82e6
CG17574 (GeneID 36415)	1	3.63e6	4.02e6	4.02e6
vap (GeneID 32569)	1	3.51e6	3.96e6	3.87e6
Cpr78Ca (GeneID 40352)	1	3.51e6	4.05e6	3.88e6
CG14419 (GeneID 31276)	1	3.49e6	4.02e6	3.91e6
nAChRalpha6 (GeneID 34304)	1	3.55e6	4.05e6	3.98e6
nAChRalpha6 (GeneID 34304)	2	3.74e6	4.68e6	3.84e6
CG11353 (GeneID 38560)	1	3.53e6	4.01e6	3.99e6

The list goes on (4 carried over from the part before).
target gene	dsRNA no.	mean viability with MMS	viability with MMS, replicate 1	viability with MMS, replicate 2
CG14419 (GeneID 31276)	1	3.49e6	4.02e6	3.91e6
nAChRalpha6 (GeneID 34304)	1	3.55e6	4.05e6	3.98e6
nAChRalpha6 (GeneID 34304)	2	3.74e6	4.68e6	3.84e6
CG11353 (GeneID 38560)	1	3.53e6	4.01e6	3.99e6
d4 (GeneID 35485)	1	3.33e6	4.17e6	4.02e6
d4 (GeneID 35485)	2	3.32e6	3.83e6	3.89e6
eIF1A (GeneID 44260)	1	3.26e6	3.70e6	3.74e6
Pk34A (GeneID 34705)	1	3.61e6	4.13e6	4.05e6
CG4661 (GeneID 32238)	1	3.55e6	4.05e6	3.99e6
peb (GeneID 31391)	1	3.25e6	3.72e6	3.58e6
peb (GeneID 31391)	2	3.67e6	4.06e6	4.26e6
Cpr62Bb (GeneID 38240)	1	3.63e6	4.12e6	4.06e6
RpS30 (GeneID 42470)	1	2.89e6	3.55e6	3.59e6
CG33181 (GeneID 318916)	1	3.57e6	4.03e6	4.08e6
CG33181 (GeneID 318916)	2	3.39e6	3.86e6	3.93e6
eIF2A (GeneID 40431)	1	3.56e6	4.05e6	4.01e6
CG2145 (GeneID 32027)	1	3.71e6	4.26e6	4.26e6
Pop1 (GeneID 31475)	1	3.51e6	4.02e6	4.38e6
CG10011 (GeneID 43387)	1	3.47e6	3.87e6	4.00e6
Pa1 (GeneID 32079)	1	3.49e6	3.95e6	3.95e6
CG42237 (GeneID 32261)	1	3.72e6	4.27e6	4.11e6
CG34049 (GeneID 3885620)	1	3.47e6	4.16e6	3.74e6
Obp58b (GeneID 37607)	1	3.60e6	3.96e6	4.22e6
BNIP3 (GeneID 40278)	1	3.72e6	4.18e6	4.16e6
rdhB (GeneID 42614)	1	3.53e6	3.97e6	4.04e6
Dic3 (GeneID 35763)	1	3.64e6	4.18e6	4.00e6
TwdlG (GeneID 40535)	1	3.56e6	3.96e6	4.11e6
ItgaPS5 (GeneID 37732)	1	3.72e6	4.26e6	4.15e6
CG3071 (GeneID 31213)	1	3.60e6	4.04e6	4.11e6
dgt4 (GeneID 31361)	1	3.69e6	4.25e6	4.13e6
CG11382 (GeneID 31069)	1	3.53e6	4.01e6	4.01e6
Gycbeta100B (GeneID 43682)	1	3.67e6	4.16e6	4.06e6
Gycbeta100B (GeneID 43682)	2	3.67e6	4.18e6	4.04e6
Gycbeta100B (GeneID 43682)	3	3.60e6	4.05e6	4.10e6
polo (GeneID 40232)	1	3.73e6	4.19e6	4.20e6
polo (GeneID 40232)	2	3.11e6	3.80e6	3.79e6
CG1628 (GeneID 31990)	1	3.43e6	3.86e6	3.91e6
CG31802 (GeneID 318949)	1	3.43e6	3.99e6	3.79e6
CG13272 (GeneID 35013)	1	3.58e6	4.01e6	4.10e6
CG13272 (GeneID 35013)	2	3.50e6	3.99e6	3.96e6
CG6481 (GeneID 32843)	1	3.22e6	3.59e6	3.58e6
Ddrgk1 (GeneID 42516)	1	3.68e6	4.25e6	4.03e6
PGRP-SA (GeneID 32099)	1	3.58e6	4.06e6	4.04e6
dmrt99B (GeneID 43495)	1	3.00e6	3.54e6	3.55e6
dmrt99B (GeneID 43495)	2	3.18e6	3.72e6	3.39e6
Cpr49Ag (GeneID 36353)	1	3.46e6	3.95e6	3.85e6
